Results as given in publication PMC10163288.
Some of the results follow.

B1: il10ra_site1_normal_mot_HHH_b2_02287_000000121_0001_1_22_H_._HHH_b1_07128_af2_0001_0000200017_0000001_0 (protein)
chain: SSSSDERYEEVKRILQEVLELHRNGDHEEAERLLRELEEELEELGNDNALFVVEFLLRLVTSSSS
B2: il10ra_site1_normal_mot_HHH_b2_04251_af2_000000037_0001_42_56_H_._HHH_b1_07004_0001_0000500044_0000001_0 (protein)
chain: SSSSDQEELREEAKEVEEEIKEIPDPEERLKLLQELSRHAIELADPEVTRIVLELAEFIRNSSSS
B3: il10ra_site1_sap_19_mot_HHH_b2_00335_000000038_0001_43_57_H_._HHH_b1_03234_0001_0000400063_0000002_0_0001 (protein)
chain: SSSSEAVKRVAELLREASKLQNDGNPEEAERVAEEALEVAEEGNNPLLEWQARFLLHRIRNSSSS
B4: il10ra_site1_normal_mot_HHH_b2_01032_000000296_0001_1_18_H_._HHH_b1_04384_af2_0001_0000600026_0000001_1 (protein)
chain: SSSSSDEEEELLELSRQAFELALRGNPEEAREVLEEAERLARELGDERLLRLVEELLQALSSSSS
B5: il10ra_site1_sap_25_mot_HHH_b2_06752_000000207_0001_1_21_H_._HHH_b1_03800_0001_0000100019_0000002_0_0001 (protein)
chain: SSSSDVEEQVEELEEEIERLIEENDPEEALRLIMELVRLAFRNSDPETLRRAWELAKRLVSSSSS
B6: il10ra_site1_normal_mot_HHH_b1_08742_000000038_0001_1_20_H_._HHH_b2_07548_0001_0000400020_0000001_1_af2pred_0001 (protein)
chain: SSSSSDEEEEEVEELLEEAKHIEDSEERLKLIREAAKIAVEANDPELERLVREVSHEASSSSSSS
B7: il10ra_site1_sap_16_mot_HHH_b1_02997_000000220_0001_39_52_H_._HHH_b2_02100_0001_0000300036_0000001_0_0001_af2pred_0001 (protein)
chain: SSSSDEEEEEVKELLEEAEKIPDDREVARLLFRALRLAAELNDPELIRAVLKVAARLREGSSSSS
B8: il10ra_site1_normal_mot_HHH_b1_01821_000000158_0001_23_39_H_._HHH_b2_05355_0001_0000400025_0000001_0 (protein)
chain: SSSSDEEELEREVRELLEQAEETSDQEERVELALRALRLVFRNSDPELLQLIWEVFRRLASSSSS
B9: il10ra_site1_normal_mot_HHH_b1_01880_000000285_0001_23_39_H_._HHH_b1_04714_0001_0000200020_0000001_0_af2pred_0001 (protein)
chain: SSSSSRFEIAFRFLRHLAEALGDPELERLLEELLEEYEKEGDPKYLQEAAKLVLKRSRELSSSSS
B10: il10ra_site1_sap_25_mot_HHH_b2_00984_000000042_0001_1_20_H_._ems_p1-16H-GBL-16H-GABBL-15H_0053_0001_0001_0001_0001_0000400031_0000001_1_0001 (protein)
chain: SSSSDAAEFLVRQAIRVLRLLGDEEAVRRVEELLEEAEEKGDPELFHEAIHLAVELAQQDSSSSS
B11: il10ra_site1_normal_mot_HHH_b2_05984_000000071_0001_38_52_H_._HHH_b1_05086_0001_0000200011_0000001_0_af2pred_dldesign_0_af2pred (protein)
chain: SSSSNPAARAEAERLYEELKKLLKEGKKEEVQKLFQQLVKLALETECVYAAQLANELLKLLSSSS
B12: il10ra_site1_normal_mot_HHH_b1_05056_000000217_0001_1_20_H_._HHH_b2_06767_0001_0000300019_0000002_0 (protein)
chain: SSSSDEEELEELLEELKRLIEEGDKEEALKLVQRIIRLAFRLRDPEALQLLWELVRALANSSSSS
B13: il10ra_site1_sap_23_mot_HHH_b2_07873_af2_000000172_0001_1_19_H_._HHH_b2_07828_af2_0001_0000600031_0000001_0_0001 (protein)
chain: SSSSSSEEYEERVEELLERLEEVSPQEAYELLREAIELAAEANDHELFRLIMEALERFMRSSSSS
B14: il10ra_site1_normal_mot_HHH_b2_05323_000000159_0001_1_18_H_._HHH_b2_04323_af2_0001_0000600011_0000002_0 (protein)
chain: SSSSSEEKEEALELALRAFRLALRGNPEEAKELLERAAELAEELGDERLLRIIRDLLQALKSSSS
B15: il10ra_site1_normal_mot_HHH_b1_01821_000000158_0001_23_39_H_._HHH_b1_00069_af2_0001_0000200020_0000002_0 (protein)
chain: SSSSDEEERLKELLEELEEAVRRGDEELVSELALEAIRLAIRLSDEEALQEIWELFKEAISSSSS
B16: il10ra_site1_sap_18_mot_HHH_b2_02053_af2_000000006_0001_3_19_H_._HHH_b2_07330_0001_0000300019_0000001_0_0001 (protein)
chain: SSSSSEESEIALRFHEAMLRQAIELNNKEAFRSALRALRALAELYNDPEVEEVIRELEELFSSSS
B17: il10ra_site1_normal_mot_HHH_b1_06914_000000280_0001_1_18_H_._HHH_b1_02402_0001_0000100007_0000002_0 (protein)
chain: SSSSDLEEIYELSREAAELLAEGDDEEARRVVEEAEEIAERANNEVALFTLEYLLRQIERQSSSS
B18: il10ra_site1_sap_21_mot_HHH_b2_03220_af2_000000223_0001_23_40_H_._HHH_b2_06833_0001_0000300025_0000001_0_0001 (protein)
chain: SSSSSQEAYEILKEAIELIIELARRGNEEEAEKVFEEARELLEELGDRLAVWQLEFAFRRASSSS
B19: il10ra_site1_normal_mot_HHH_b1_00999_000000080_0001_41_55_H_._HHH_b1_02815_0001_0000300012_0000002_0 (protein)
chain: SSSSDEEEEESEELLKELKKLLEEGDQHRFLRLLQEIVRFAFRVSDEELLQAVWELAKKWGSSSS
B20: il10ra_site1_sap_21_mot_HHH_b1_08477_000000091_0001_40_57_H_._HHH_b2_03698_af2_0001_0000800004_0000001_0_0001 (protein)
chain: SSSSSSDRRRRIYELIHRAFEIDDEEEVRELLEEAKELAEEANDRLFLLQVEVVERAISSSSSSS
B21: il10ra_site1_sap_17_mot_65b8060e20531850bca9f2e11f97d954_0001_af2_000000137_0001_17_31_H_._HHH_b1_05533_0001_0000400016_0000002_0_0001 (protein)
chain: SSSSSDEEERQESERLLEELEELTDPEELMRVAREIIRLAFRLSDEELLQALWRLVKELSSSSSS
B22: il10ra_site1_sap_16_mot_HHH_b1_08411_af2_000000053_0001_1_20_H_._HHH_b1_01084_0001_0000400010_0000001_0_0001_af2pred_dldesign_0_af2pred (protein)
chain: SSSSSEAEALFAELEAAAAAGDEAAVRELSVRLHRLATERKDLELLKKAWDLLVDFYRKLSSSSS
B23: il10ra_site1_sap_16_mot_HHH_b2_07006_000000108_0001_1_19_H_._HHH_b2_01074_0001_0000400016_0000001_0_0001 (protein)
chain: SSSSDVEELLEEAEELLEKGNPREAARVLAEAVRLVFEEGDKELLQRIWELVQEVRRLAKSSSSS
B24: il10ra_site1_sap_18_mot_HHH_b1_07380_000000129_0001_1_20_H_._HHH_b1_07572_0001_0000100004_0000001_0_0001_af2pred_0001 (protein)
chain: SSSSSEVIHRALELMSKAFKLALEGNPEEAEKVLEEVEELARENNDERLRQLVEALERFLSSSSS
B25: il10ra_site1_normal_mot_HHH_b2_04646_000000019_0001_1_20_H_._ems_3hC_245_0002_0001_0000100001_0000001_0 (protein)
chain: SSDEEERVLDELLREFVKLFANAKSDEEVQEVAEEVIEEAEKANTEAAKIVIEAVRRILEDATSS
B26: il10ra_site1_normal_mot_HHH_b2_00475_000000107_0001_44_57_H_._HHH_b2_03520_0001_0000600038_0000001_0 (protein)
chain: SSSSDEEEVSHLLFRALELLFRGDKEEAEELVEEAKEIAEESNDPELQRYVEIAEHFVKAHSSSS
B27: il10ra_site1_sap_16_mot_HHH_b1_06789_af2_000000041_0001_1_20_H_._HHH_b2_00440_af2_0001_0000100003_0000002_0_0001 (protein)
chain: SSSSSDEEEEEVRELLEEAEKIEDPRERAEVLARALRVAWEGRNPELLRAVDEVAIKLYWSSSSS
B28: il10ra_site1_normal_mot_HHH_b1_03900_000000129_0001_1_16_H_._HHH_b1_01328_af2_0001_0000200004_0000002_0 (protein)
chain: SSSSDERKRRLYELIQRIARLLIRGNPEEAQELVEELRELAEELNDEAAKRAVEILEEAINSSSS
B29: il10ra_site1_normal_mot_HHH_b2_05532_000000217_0001_1_18_H_._HHH_b1_06601_0001_0000800040_0000001_0_af2pred_dldesign_0_af2pred (protein)
chain: SSSSDPEAALAEAKARMEALIAAGKYDEANQLATETARALAEAGHPELARELVRMMWEKLKSSSS
B30: il10ra_site1_sap_15_mot_8756ee2cf497b5429c717dfc0c0bcfd6_0001_000000186_0001_1_13_H_._HHH_b1_05891_af2_0001_0000400025_0000002_0_0001 (protein)
chain: SKVQRALRIAYQRSDPEVLRALWRLVQALYEDPNNEEAREVLELLIRALEEGDPEKVEEAVELAR
B31: il10ra_site1_normal_mot_HHH_b2_07521_000000141_0001_20_37_H_._HHH_b1_05590_0001_0000200020_0000001_1_af2pred_0001 (protein)
chain: SSSSSSEHVELSIRFAKFLLEEGDPEAAKIIIKAAVEIAEKDGDEELLEEARELLEEIESSSSSS
B32: il10ra_site1_sap_16_mot_HHH_b2_06497_000000202_0001_1_20_H_._HHH_b1_03926_0001_0000200018_0000001_0_0001_af2pred_0001 (protein)
chain: SSSSSEEELEELHELVRELLEKGDPEKAIEVLARLVRLAIELGDEEALERAYELARRAKGSSSSS
B33: il10ra_site1_normal_mot_HHH_b2_00730_000000084_0001_1_16_H_._HHH_b1_06912_0001_0000200009_0000001_0 (protein)
chain: SSSSSSYLELALRFIEALLESGDPEAARLLLKAAEEIARREGDEEVKEELERLKEEIEERSSSSS
B34: il10ra_site1_normal_mot_HHH_b2_00475_000000107_0001_44_57_H_._HHH_b1_06566_af2_0001_0000500037_0000001_0_af2pred_0001 (protein)
chain: SSSSSSEVAELLLEALELLAEGNPEEAEEVAREAEELARELGDEELLRAVEILKRFIELASSSSS
B35: il10ra_site1_normal_mot_HHH_b2_08144_af2_000000046_0001_38_52_H_._HHH_b2_00248_af2_0001_0000300023_0000001_0_af2pred_dldesign_0_af2pred (protein)
chain: SSSSSSNPTEKTYELIRKASLLEDKEEREKLLEEAEKLAKELNDKTALYTIDYLKSLLSSSSSSS
B36: il10ra_site1_normal_mot_HHH_b1_02062_000000185_0001_1_20_H_._HHH_b1_06879_af2_0001_0000300019_0000002_0 (protein)
chain: SSSSDEEFRRVYELSREASELDSDGDEEEAEEVLREAQELAEELNNLLLRFQIEFLLRLLSSSSS
B37: il10ra_site1_sap_13_mot_HHH_b1_05860_000000142_0001_1_19_H_._HHH_b1_05334_0001_0000200015_0000001_0_0001_af2pred_0001 (protein)
chain: SSSSSDEELVARAILRLLKSAVKAGDEERARRLVRMALEIVEKLGDEEILEALEKILEELRSSSS

Each binder was assayed against il10ra, Q13651 (assay: yeast display titration).

Apparent Kd, inactive:
B1 no binding seen, B2 no binding seen, B3 no binding seen, B4 no binding seen, B5 no binding seen, B6 no binding seen, B7 no binding seen, B8 no binding seen, B9 no binding seen, B10 no binding seen, B11 no binding seen, B12 no binding seen, B13 no binding seen, B14 no binding seen, B15 no binding seen, B16 no binding seen, B17 no binding seen, B18 no binding seen, B19 no binding seen, B20 no binding seen, B21 no binding seen, B22 no binding seen, B23 no binding seen, B24 no binding seen, B25 no binding seen, B26 no binding seen, B27 no binding seen, B28 no binding seen, B29 no binding seen, B30 no binding seen, B31 no binding seen, B32 no binding seen, B33 no binding seen, B34 no binding seen, B35 no binding seen, B36 no binding seen, B37 no binding seen
